No constants are given. Whether binding was seen depends on the method and setting. Binding can be weak; no strength is given. For some assays here: Binding seen in cells or lysates may run through a third protein. For some assays here: Where a sequence is shown, tags or fusion partners need not be part of it.
What was measured:
[1] = target: T1, Biotinylated NH-GrgA (Chlamydia trachomatis) (UniProt O84512); assay: BLI
T1 sequence (chain, biotin (EZ-Link Sulfo-NHS-LC-Biotin; sites not stated)): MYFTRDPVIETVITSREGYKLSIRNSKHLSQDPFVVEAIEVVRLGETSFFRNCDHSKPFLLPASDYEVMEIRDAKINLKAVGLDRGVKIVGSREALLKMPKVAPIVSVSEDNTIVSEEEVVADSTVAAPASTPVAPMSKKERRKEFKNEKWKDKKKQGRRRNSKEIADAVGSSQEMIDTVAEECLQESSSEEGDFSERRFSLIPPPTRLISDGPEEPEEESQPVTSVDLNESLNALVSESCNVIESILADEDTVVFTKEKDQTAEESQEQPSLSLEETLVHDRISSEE

[2] = target: T2, N-terminally strep-tagged GrgA (Chlamydia trachomatis) (UniProt O84512); assay: pull-down
T2 sequence: T1 sequence (chain, biotin (EZ-Link Sulfo-NHS-LC-Biotin; sites not stated))

[3] = target: T3, NH-GrgAΔ114-137 (Chlamydia trachomatis) (UniProt O84512); assay: BLI
T3 sequence: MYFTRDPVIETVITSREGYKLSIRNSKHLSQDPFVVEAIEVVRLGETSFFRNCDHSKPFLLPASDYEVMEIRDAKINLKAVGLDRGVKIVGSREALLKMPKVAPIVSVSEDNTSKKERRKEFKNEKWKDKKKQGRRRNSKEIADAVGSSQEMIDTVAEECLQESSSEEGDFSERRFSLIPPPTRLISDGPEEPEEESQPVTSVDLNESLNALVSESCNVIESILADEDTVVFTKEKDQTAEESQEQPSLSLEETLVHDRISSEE

[4] = target: N-terminally strep-tagged σ^28 (C. trachomatis); assay: pull-down

Which binding [1] does the source give for “N-terminally poly-His-tagged C. trachomatis σ^28” here?
The binding was “binds”.

And the binding [2]?
The binding was “binds”.

For “N-terminally strep-tagged σ^28 (C. trachomatis)”, which binding [3] is on record?
Its binding is “binds”.

With “NH-σ^28ΔNL (C. trachomatis) (domain or fragment)” as the molecule, how does the binding [2] read?
Its binding is “no binding (tested: 5 μg)”.

For NH-σ^28ΔR2 (C. trachomatis), which binding [2] is on record?
Its binding is “no binding (tested: 5 μg)”.

For NH-σ^28ΔR3 (C. trachomatis), which binding [2] is on record?
The binding was “binds weakly”.

How did the binding [2] turn out when NH-σ^28ΔR4 (C. trachomatis) was run?
The binding was “binds weakly”.

B1: N-terminally His-tagged GrgA, full length (protein, UniProt O84512 1-288)
chain: T1 sequence (chain, biotin (EZ-Link Sulfo-NHS-LC-Biotin; sites not stated))
Which binding [4] does the source give for B1 here?
Its binding is “binds”.

B2: NH-GrgAΔ1-64 (domain or fragment, UniProt O84512 65-288)
chain: DYEVMEIRDAKINLKAVGLDRGVKIVGSREALLKMPKVAPIVSVSEDNTIVSEEEVVADSTVAAPASTPVAPMSKKERRKEFKNEKWKDKKKQGRRRNSKEIADAVGSSQEMIDTVAEECLQESSSEEGDFSERRFSLIPPPTRLISDGPEEPEEESQPVTSVDLNESLNALVSESCNVIESILADEDTVVFTKEKDQTAEESQEQPSLSLEETLVHDRISSEE
For B2, which binding [4] is on record?
Its binding is “binds”.

B3: NH-GrgAΔ114-137 (protein, UniProt O84512)
chain: T3 sequence
Which binding [4] does the source give for B3 here?
Its binding is “binds”.

B4: NH-GrgAΔ114-165 (protein, UniProt O84512)
chain: MYFTRDPVIETVITSREGYKLSIRNSKHLSQDPFVVEAIEVVRLGETSFFRNCDHSKPFLLPASDYEVMEIRDAKINLKAVGLDRGVKIVGSREALLKMPKVAPIVSVSEDNTIADAVGSSQEMIDTVAEECLQESSSEEGDFSERRFSLIPPPTRLISDGPEEPEEESQPVTSVDLNESLNALVSESCNVIESILADEDTVVFTKEKDQTAEESQEQPSLSLEETLVHDRISSEE
For B4, which binding [4] is on record?
The binding was “no binding (tested: 5 μg)”.
